From US9999649B2, “Peptide having ability to synthesize collagen and use thereof” (NOVACELL TECHNOLOGY INC., priority 2013, dated 2018)
Not every detail of the peptide structures is certain; ends, links or a residue may be inferred. No end group written: not given here.

How the values were obtained:
[1] = system: Pyk2 (Tyr402); experiment: Pyk2 phosphorylation by western blot in Hs27 cells; assay type: cell-based, human
[2] = system: collagen I mRNA; experiment: Collagen I mRNA expression by quantitative RT-PCR in Hs27 cells; assay type: cell-based, human; conditions: 24 hours, real-time qPCR
[3] = system: ERK; experiment: ERK phosphorylation by Pal-YIGSR peptide, immunoblotting in Hs27 skin fibroblasts; assay type: cell-based, human; conditions: FIG. 8
Description: Hs27 skin fibroblasts, which are under culture, were treated with the peptide derivatives prepared in Examples 1 and 2, and Comparative Example 2, and an amount of expressed type I collagen in the cells were measured by an immunoblotting method. The Hs27 skin fibroblasts were cultured by using DMEM medium, (Lonza, USA), to which 10% FBS was added (Lonza, USA), under the condition of 95% of humidity, 5% CO2, and 37° C. Hs27 skin fibroblasts were treated with each concentration of the peptide (0, 2, 25, 50 and 100 μM) for 24 hours or 100 μM of the peptide for each period of time (0, 0.5, 6, 12 and 24 hours). Then, the treated cells were sonicated in the lysis buffer (150 mM NaCl, 1% Triton X-100, 10 mM Tris, 1 mM EDTA, pH 7.4). Thereafter, supernatant was isolated through centrifugation, and quantification was performed through Bradford assay. The same amount of a protein was mixed in a 5× sample buffer and the mixture was heated for 5 minutes at 95° C. The resultant was electrophoresed on 6-15% concentration gradient SDS-Polyacrylamide gel electrophoresis (SDS-PAGE) and then adsorbed to a nitrocellulose membrane. […]

[4] = system: FAK (Tyr397); experiment: FAK phosphorylation by western blot in Hs27 cells; assay type: cell-based, human
[5] = system: MMP-1; experiment: MMP-1 expression by western blot in Hs27 cells; assay type: cell-based, human; conditions: 10^3 nM, 0 to 24 hours
[6] = system: MAPK/ERK; experiment: MAPK/ERK phosphorylation by western blot in Hs27 cells; assay type: cell-based, human; conditions: as soon as treatment, continued until 24 hours
[7] = system: type I collagen protein; experiment: Collagen I protein expression by YIGSR peptide, western blot in Hs27 cells; assay type: cell-based, human
[8] = system: leukemia cells; conditions: Yoshida et al., (1999) Br. J. Cancer; cited from earlier work
[9] = YIGSR peptide treatment time course

YIGSR [YIGSR peptide, YIGSR]
Pyk2 phosphorylation versus untreatment ([1]; 12 hour treatment, densitometric analysis): about 1.5 times | time after treatment at which increase in Pyk2 phosphorylation was observed [1, 9]: 6 h | concentration with the highest collagen I mRNA level [2]: 10^3 nM | ERK phosphorylation induction [3]: rarely affect ERK phosphorylation | time at which FAK phosphorylation started to increase [4, 9]: 0.1 h | FAK phosphorylation level versus untreatment ([4]; densitometric analysis, remained for 24 hours after treatment): about 2 times | expression levels of MMP-1 protein depending on period of treatment time [5]: no observed significant difference | MAPK/ERK phosphorylation level versus untreatment [6]: about 2.5 times | collagen I expression depending on period of time of treatment ([7]; 1 μM, 0, 0.5, 6, 12 and 24 hours): increased as a period of time of YIGSR peptide treatment was getting longer | increase of collagen I expression versus untreated Hs27 cells ([7]; 1 μM, 24 hour-treatment (time course)): about 5 times | increase of collagen I versus untreated Hs27 cells ([7]; 10^3 nM treatment, 24 hours, densitometric analysis): at least 6 times | expression of collagen I protein depending on treatment dose ([7]; Hs27 cells, 0 to 10^5 nM, 24 hours, western blot): remarkably increased in a treatment does-dependent manner | YIGSR peptide concentration of maximum collagen production ([7]; Hs27 cells, 24 hours, western blot): 10^3 nM | growth of leukemia cells [8]: inhibits growth of leukemia cells
